Results on 1 molecule are retold here after patent publication EP4800035A1.

Amino acid sequences for entries named in this document (tags omitted). Residues count along the entry.
UniProt P16871, residues 21-459: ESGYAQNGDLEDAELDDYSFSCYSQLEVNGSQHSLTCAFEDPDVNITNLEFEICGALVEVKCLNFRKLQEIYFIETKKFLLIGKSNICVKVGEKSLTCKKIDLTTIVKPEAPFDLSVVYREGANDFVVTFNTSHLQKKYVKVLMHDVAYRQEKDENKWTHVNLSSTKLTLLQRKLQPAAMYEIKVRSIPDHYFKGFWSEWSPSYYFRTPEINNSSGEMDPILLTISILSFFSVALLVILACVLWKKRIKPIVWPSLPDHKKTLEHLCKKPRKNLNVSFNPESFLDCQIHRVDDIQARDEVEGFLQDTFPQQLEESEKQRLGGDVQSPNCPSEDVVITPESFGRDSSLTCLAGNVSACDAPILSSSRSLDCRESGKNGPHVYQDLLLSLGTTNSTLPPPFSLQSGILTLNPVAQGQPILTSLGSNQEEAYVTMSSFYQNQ

Results are given in words; binding and its absence hold for the method and conditions named. Some results given as binding are weak or reduced against the parent protein; the word gives no strength.

The target of this test is human interleukin-7 receptor (IL-7R) (human) (UniProt P16871). Nature of the test: flow cytometry on NALM6 and REH cells (FIG. 5, humanized clone).

B1: humanized anti-human IL-7R antibody clone 577 in the IgG1 format (antibody, V domains shown)
VH: EVQLVQSGAEVKKPGASVKVSCTVSGYTIKDTYIHWVKQAPEQGLEWMGRIDPASDDTKYDPKFQGKVTLTADTSINTAYLQLSSLTSEDTAVYYCVRRVYDYLDYWGQGTTVTVSS
VL: ETTLTQSPAFMSATMGDKVTISCMTSTDINDDMNWYQQKPGEPPILIIQEGNTLRPGIPPRFSGSGYGTDFTFTINNMLSEDAADYFCLQTDNLPLTFGGGTKLE
With B1, the binding result is “binds”.
